Data as given in PubChem BioAssay AID686937 (Drosophila RNAi Screening Center, 2013).
Purpose: 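Knock-downs that reduce output of a secreted reporter enzyme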 (primary screen). System: Drosophila S2 cells expressing secreted horseradish peroxidase. Reagent: long dsRNA against Drosophila genes. Timing: about 5.5 days (5 days dsRNA, then 12 h reporter induction). Conditions: reporter expression induced after 5 days of dsRNA, read 12 h later; inducer not stated. Read-out: 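After 5 days of dsRNA and 12 h of reporter induction, medium peroxidase read by chemiluminescence and scored as per-plate z-score; higher values mean more reporter released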. Scale: z-score: higher = more reporter secreted into medium.
The screen tested about 23,000 reagents; shown is an unselected part of those that have a named target and a result. 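Reduced-secretion tags in replicate 1 do not always agree with the z-scores; no criterion for assigning the tags was given.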 Names joined by + are all predicted targets of the reagent. Not all columns of the deposit are shown. Reagent sequences are not shown. Not stated in the record: the amount of reagent.

Target gene,amplicon,"z-score, replicate 1","z-score, replicate 2","z-score, replicate 3","z-score, replicate 4"
conu,DRSC07810,0.73,0.53,,
SIFaR,DRSC13467,-0.08,0.29,,
SIFaR,DRSC14266,0.38,0.36,,
pum,DRSC12722,0.4,0.45,,
pum,DRSC12726,-0.31,0.27,,
pum,DRSC17037,0.59,-0.43,-1.58,0.49
pum,DRSC17038,-0.14,0.36,,
pum,DRSC22758,0.25,0.34,,
pum,DRSC22794,-0.85,-0.99,,
CG14931,DRSC02413,0.14,0.09,,
rdgA,DRSC17863,-0.1,-0.36,,
rdgA,DRSC18036,-0.1,0.18,,
rdgA,DRSC18827,0.37,0.35,,
NT1,DRSC08530,0.45,0.52,,
NT1,DRSC22895,-0.16,0.06,,
Tango9,DRSC14173,-2.06,0.41,,
CG3777,DRSC18489,-1.66,-0.81,,
CG30161,DRSC22141,-0.31,0.14,,
CG34231,DRSC05323,0.2,0.02,,
CG10338,DRSC02039,0.38,0.29,,
tank,DRSC00461,0.26,0.3,,
Mal-A1,DRSC07461,0.33,0.32,,
Gr97a,DRSC13802,0.11,0.04,,
CG7137,DRSC07017,0.5,0.38,,
CG34002,DRSC09512,-0.41,0.05,-0.26,0.22
Rcd4,DRSC02597,0.29,0.4,,
Patronin,DRSC06756,0.48,-0.38,,
Patronin,DRSC06757,0.36,0.2,,
Patronin,DRSC06994,0.35,0.25,,
CG7742,DRSC03066,0.27,0.33,,
MESK2,DRSC04258,0.18,0.38,,
CG34305,DRSC11995,-0.21,0.2,,
CG42726 + CG42727,DRSC14485,0.36,0.45,,
CG33642,DRSC01325,0.57,0.25,,
CG31515,DRSC13610,0.47,0.44,,
CG7600,DRSC09681,-0.41,-0.11,,
Amy-p,DRSC06786,0.22,0.22,,
CG31418,DRSC21780,-0.67,-0.55,,
CG43098,DRSC08051,-0.09,0.08,,
CG10877,DRSC14274,0.25,0.34,,
Apc2,DRSC14115,0.61,0.53,,
Roe1,DRSC07534,-0.02,-0.11,,
CG17104,DRSC02573,0.28,0.21,,
CG13314,DRSC09985,0.19,0.23,,
CG12289,DRSC09874,0.44,0.14,,
sas,DRSC12631,0.01,0.27,,
CG12479,DRSC19459,0.35,0.41,,
CG4025,DRSC18523,0.27,0.28,,
ana2,DRSC05952,0.3,0.36,,
CG42674,DRSC10066,-1.58,-1.18,,
CG42674,DRSC10067,0.45,0.52,,
CG42674,DRSC10811,0.34,0.33,,
Dph1,DRSC09851,-0.5,-0.25,,
ppk15,DRSC14733,-0.43,-0.27,,
wda,DRSC15579,0.63,0.29,0.38,0.29
wda,DRSC22351,-0.12,0.36,,

Laid out differently: entries from further up.
CG17104 [DRSC02573]
- z-score, replicate 1: 0.28
- z-score, replicate 2: 0.21

CG13314 [DRSC09985]
- z-score, replicate 1: 0.19
- z-score, replicate 2: 0.23

CG12289 [DRSC09874]
- z-score, replicate 1: 0.44
- z-score, replicate 2: 0.14

sas [DRSC12631]
- z-score, replicate 1: 0.01
- z-score, replicate 2: 0.27

CG12479 [DRSC19459]
- z-score, replicate 1: 0.35
- z-score, replicate 2: 0.41
